Measurements reported in publication PMC5570293.
No constants are given. Whether binding was seen depends on the method and setting. Binding seen in cells or lysates may run through a third protein. Some entries that bind do so weakly or less than the wild type. Where a sequence is shown, tags or fusion partners need not be part of it.

Key:
Experiment in all cases: co-IP; S2 cells cotransfected with UAS plasmids and actC5-GAL4, 72 h expression; immunoprecipitation with rabbit anti-GFP antibodies; Western blots with anti-GFP, anti-FLAG or anti-HA
[1] = target: T1, GFP-Mfap1^1-229 (Drosophila) (UniProt Q9W062)
T1 sequence: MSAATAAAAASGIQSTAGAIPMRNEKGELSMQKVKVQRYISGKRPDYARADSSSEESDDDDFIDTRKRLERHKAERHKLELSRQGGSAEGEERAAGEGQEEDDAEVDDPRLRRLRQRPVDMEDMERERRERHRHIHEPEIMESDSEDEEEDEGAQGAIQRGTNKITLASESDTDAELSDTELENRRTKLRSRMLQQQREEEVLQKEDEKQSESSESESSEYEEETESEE

[2] = target: T2, Mfap1-GFP (C-terminally GFP-tagged full length Mfap1, 1-478) (Drosophila) (UniProt Q9W062)
T2 sequence: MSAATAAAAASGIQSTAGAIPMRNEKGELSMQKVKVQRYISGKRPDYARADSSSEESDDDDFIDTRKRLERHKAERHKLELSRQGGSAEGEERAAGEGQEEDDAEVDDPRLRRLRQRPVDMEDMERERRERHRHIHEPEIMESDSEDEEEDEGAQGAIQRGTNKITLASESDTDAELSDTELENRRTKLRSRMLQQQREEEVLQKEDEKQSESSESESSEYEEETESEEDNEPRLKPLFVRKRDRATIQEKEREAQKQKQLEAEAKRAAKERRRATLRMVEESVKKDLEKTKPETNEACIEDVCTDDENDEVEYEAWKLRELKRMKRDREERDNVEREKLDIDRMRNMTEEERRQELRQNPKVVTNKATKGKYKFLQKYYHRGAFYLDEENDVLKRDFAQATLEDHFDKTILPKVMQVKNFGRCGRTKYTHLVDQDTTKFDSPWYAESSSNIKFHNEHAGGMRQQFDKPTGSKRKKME

[3] = target: T3, GFP-Mfap1^230-478 (Drosophila) (UniProt Q9W062)
T3 sequence: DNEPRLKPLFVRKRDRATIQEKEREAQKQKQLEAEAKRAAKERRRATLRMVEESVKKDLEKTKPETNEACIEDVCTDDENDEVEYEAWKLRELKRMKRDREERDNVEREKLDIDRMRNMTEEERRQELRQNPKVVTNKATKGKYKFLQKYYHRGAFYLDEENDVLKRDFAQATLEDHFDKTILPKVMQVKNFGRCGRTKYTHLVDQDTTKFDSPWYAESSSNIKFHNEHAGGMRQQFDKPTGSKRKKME

binding [1]: no binding | binding [2]: binds | binding [3]: binds
B1: HA-tagged TDP-43 (full length) (protein, UniProt O97468 1-531)
chain: MDFVQVSEEEGDEPIQLPAEEDGTLLLSTLQAQFPGSCGLKYRNLDTKAVRGVRSNEGRLFPPSVESGWGEYAYFCVFPKENKRKSDDNLENSTAKTKRIETRLRCTDLIVLGLPWKTTEESLREYFETYGEVLMAQIKKDTKSGQSKGFGFVRFGSYDAQMRVLTNRHLIDGRWCEVKVPNSKGMGHQVPCKVFVGRCTEDINSDDLREYFSKFGEVTDVFIPRPFRAFSFVTFLDPDVAQSLCGEDHIIKGVSVHVSNAAPKAEQNRNQQVQSYNYNSANSFGMHSYHPQGNHMNPGRNGHHRGNNQHNAHGGENAIVPNNHNIGTAGYGMGGNNYGGNSGGGYHNNGGNHSSGGNTNRQDGGSQYNSRQSNFHGMNQPHNGNVGGSNGWMNRGHLDMPNLQALGINSQGSSSSNQGQNMSNQSMLNLNSLPINPALVAAALNQWSLVGNQLQNQNQDQQGGNFLSWMAQNGGHNNANNFGGRKGPNNPNNNPAANGIKTDNSEPQNGNTGWSNQSSGSQNAAEKSNFL
